Reference: paper PMC9169624, “Human HELB is a processive motor protein that catalyzes RPA clearance from single-stranded DNA” (Proceedings of the National Academy of Sciences of the …, 2022)
The exact form of at least one protein or probe is not confirmed. For some of these results: A negative result means that nothing was seen under these conditions. For some of these results: Weaker means in comparison with the reference protein, sequence or condition of that experiment. For some of these results: At least one verdict rests on a figure or table, not on a statement of the authors.

Chains of the proteins cited; added tags and fusions are not shown. Lines headed by an entry give the natural chain unless they say otherwise; changes in a name come on top. Chains listed by the source or under a name are the forms on record and can include a tag or linker.
UniProt Q8NG08: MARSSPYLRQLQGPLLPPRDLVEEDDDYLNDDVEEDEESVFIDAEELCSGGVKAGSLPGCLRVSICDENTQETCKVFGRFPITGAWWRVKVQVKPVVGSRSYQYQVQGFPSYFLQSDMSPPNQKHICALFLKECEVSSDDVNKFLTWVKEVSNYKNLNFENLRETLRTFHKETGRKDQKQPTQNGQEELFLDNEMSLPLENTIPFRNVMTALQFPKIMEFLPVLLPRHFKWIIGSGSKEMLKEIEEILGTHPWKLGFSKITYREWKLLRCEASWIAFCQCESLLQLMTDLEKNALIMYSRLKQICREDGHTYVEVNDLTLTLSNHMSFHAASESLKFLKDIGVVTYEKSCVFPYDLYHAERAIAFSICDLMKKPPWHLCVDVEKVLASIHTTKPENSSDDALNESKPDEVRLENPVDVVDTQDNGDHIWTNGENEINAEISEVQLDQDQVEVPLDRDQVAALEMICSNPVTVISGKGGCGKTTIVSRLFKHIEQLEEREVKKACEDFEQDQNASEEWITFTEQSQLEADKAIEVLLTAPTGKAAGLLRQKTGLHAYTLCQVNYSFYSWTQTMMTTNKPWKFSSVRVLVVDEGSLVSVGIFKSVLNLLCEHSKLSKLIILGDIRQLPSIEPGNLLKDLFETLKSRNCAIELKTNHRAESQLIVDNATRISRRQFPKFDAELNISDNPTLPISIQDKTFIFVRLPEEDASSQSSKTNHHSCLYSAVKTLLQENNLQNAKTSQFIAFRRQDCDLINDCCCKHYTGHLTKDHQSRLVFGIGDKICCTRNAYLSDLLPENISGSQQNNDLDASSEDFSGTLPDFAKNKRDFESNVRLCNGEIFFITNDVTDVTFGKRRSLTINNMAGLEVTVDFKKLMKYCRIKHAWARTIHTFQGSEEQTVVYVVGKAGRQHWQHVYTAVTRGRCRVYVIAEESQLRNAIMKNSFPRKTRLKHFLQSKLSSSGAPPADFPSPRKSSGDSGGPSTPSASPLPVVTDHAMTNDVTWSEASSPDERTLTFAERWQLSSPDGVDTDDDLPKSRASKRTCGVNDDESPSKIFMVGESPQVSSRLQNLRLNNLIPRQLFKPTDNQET
HELB (DNA helicase B) + Yeast RPA (yRPA), one chain, as listed by the source, chain 4 of 4: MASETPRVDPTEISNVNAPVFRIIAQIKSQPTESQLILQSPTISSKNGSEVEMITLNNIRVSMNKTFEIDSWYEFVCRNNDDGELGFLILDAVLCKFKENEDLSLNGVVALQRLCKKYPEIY
HELB (DNA helicase B) + Yeast RPA (yRPA), one chain, as listed by the source, chain 3 of 4: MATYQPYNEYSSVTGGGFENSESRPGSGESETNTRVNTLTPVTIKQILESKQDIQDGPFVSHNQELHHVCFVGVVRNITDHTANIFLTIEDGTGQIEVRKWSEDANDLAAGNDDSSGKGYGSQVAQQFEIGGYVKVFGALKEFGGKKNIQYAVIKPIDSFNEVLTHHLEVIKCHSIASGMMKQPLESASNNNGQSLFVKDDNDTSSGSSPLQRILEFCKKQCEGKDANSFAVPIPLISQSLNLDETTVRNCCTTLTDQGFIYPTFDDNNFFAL
HELB (DNA helicase B) + Yeast RPA (yRPA), one chain, as listed by the source, chain 1 of 4: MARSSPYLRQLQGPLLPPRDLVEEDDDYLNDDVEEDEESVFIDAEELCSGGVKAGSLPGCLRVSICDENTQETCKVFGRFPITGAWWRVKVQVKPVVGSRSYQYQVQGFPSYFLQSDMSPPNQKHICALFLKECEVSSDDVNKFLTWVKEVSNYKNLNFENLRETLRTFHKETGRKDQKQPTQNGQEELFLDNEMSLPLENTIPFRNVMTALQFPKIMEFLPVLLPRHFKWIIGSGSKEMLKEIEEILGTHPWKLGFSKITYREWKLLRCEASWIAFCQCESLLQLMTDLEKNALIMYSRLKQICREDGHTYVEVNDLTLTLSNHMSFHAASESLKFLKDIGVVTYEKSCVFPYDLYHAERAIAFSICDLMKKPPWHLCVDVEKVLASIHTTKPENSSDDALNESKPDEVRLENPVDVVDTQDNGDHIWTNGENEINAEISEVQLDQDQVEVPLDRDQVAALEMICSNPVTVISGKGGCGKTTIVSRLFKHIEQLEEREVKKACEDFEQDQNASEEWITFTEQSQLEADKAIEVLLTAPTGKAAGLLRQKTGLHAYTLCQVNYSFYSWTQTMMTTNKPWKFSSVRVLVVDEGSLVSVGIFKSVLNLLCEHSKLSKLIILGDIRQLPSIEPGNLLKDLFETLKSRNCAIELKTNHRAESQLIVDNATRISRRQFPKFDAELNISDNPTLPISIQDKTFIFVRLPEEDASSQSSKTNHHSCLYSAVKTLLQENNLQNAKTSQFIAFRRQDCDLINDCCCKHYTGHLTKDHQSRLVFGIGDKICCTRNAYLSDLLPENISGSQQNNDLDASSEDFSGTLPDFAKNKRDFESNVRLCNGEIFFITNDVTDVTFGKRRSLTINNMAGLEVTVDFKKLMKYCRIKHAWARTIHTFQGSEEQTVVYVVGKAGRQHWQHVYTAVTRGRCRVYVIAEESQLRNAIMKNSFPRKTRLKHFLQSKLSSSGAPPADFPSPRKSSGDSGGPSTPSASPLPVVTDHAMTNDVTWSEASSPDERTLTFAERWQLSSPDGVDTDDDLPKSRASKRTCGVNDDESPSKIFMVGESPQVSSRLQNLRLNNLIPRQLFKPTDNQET
HELB (DNA helicase B) + Yeast RPA (yRPA), one chain, as listed by the source, chain 2 of 4: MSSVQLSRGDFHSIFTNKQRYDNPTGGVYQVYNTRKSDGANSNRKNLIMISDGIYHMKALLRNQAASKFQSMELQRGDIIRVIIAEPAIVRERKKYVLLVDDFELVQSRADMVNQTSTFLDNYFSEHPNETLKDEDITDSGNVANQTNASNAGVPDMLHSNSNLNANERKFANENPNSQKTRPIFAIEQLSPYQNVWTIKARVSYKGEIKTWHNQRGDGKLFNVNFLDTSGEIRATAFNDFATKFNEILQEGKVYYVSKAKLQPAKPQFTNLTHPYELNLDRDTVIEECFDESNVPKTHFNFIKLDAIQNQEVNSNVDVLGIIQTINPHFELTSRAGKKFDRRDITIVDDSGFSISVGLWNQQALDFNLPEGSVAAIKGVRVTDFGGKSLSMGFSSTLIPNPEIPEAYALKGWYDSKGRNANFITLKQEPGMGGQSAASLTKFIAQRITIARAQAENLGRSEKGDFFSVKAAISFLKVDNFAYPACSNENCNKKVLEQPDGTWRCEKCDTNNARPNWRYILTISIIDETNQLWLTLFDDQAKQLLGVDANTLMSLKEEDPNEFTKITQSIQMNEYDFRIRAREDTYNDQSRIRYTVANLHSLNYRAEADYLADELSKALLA

Key:
[1] = tested on: HELB (DNA helicase B) + Yeast RPA (yRPA); test: EMSA; details: no ternary complex, yRPA itself binds the DNA; EMSA: 2.5 nM DNA (5 nM in Fig. S1F); recombinant protein; label: 5'-Cy5; single-stranded DNA
[2] = tested on: Yeast RPA (yRPA) (Saccharomyces cerevisiae); test: EMSA; details: yeast RPA-coated ssDNA; EMSA: 2.5 nM DNA (5 nM in Fig. S1F); recombinant protein; label: 5'-Cy5; single-stranded DNA
[3] = target: HELB (DNA helicase B) (Homo sapiens) (UniProt Q8NG08); test: PIFE fluorescence; details: Kd value only in figure; PIFE: 2 nM DNA for Kd; pH and temperature not in the supplied material; optical tweezers at room temperature; recombinant protein; residues 1-1087; label: 3'-Cy3; single-stranded DNA

Sequence | binding result [1] | binding result [2] | binding result [3]
GCTTGCTAGGACGGATCGCTCGAGG [EMSA 25mer] | no binding | binds | 
TTTTTTTTTTTTTTT [poly(dT) 15mer] |  |  | binds more weakly
TTTTTTTTTTTTTTTTTTTT [poly(dT) 20mer] |  |  | binds more weakly
